Data reported in patent US20260221482A1, “REDOX FLOW BATTERY” (CAMBRIDGE ENTERPRISE LIMITED, priority 2023, published 2026).
Some entries share one result that the patent states for a list of compounds.

Assay: Cyclic voltammetry in N2 purged 0.1 M NaCl aqueous solutions
Type: physicochemical
Conditions: vs SHE, 1 mM, 25° C., 20 mV s^−1
Procedure: Cyclic voltammetry experiments were carried out at 25° C. in N2 purged 0.1 M NaCl aqueous solutions with a Metrohm Eco Chemie Autolab PGSTAT12 potentiostat, working on GPES 4.9 software. A three-electrode configuration was used with a 3 mm or 1.6 mm glassy carbon working electrode, a platinum counter electrode, and RE-5B Ag/AgCl BASI reference electrode. The glassy carbon electrode was polished before each measurement using a 0.05 μm alumina-H2O slurry on a polishing cloth. CV was performed at 1 mM concentrations of the respective compound using a scan rate of 20 mV s^−1.

C[N+](C)(C)CCC[n+]1ccc(-c2cc[n+](CCC[N+](C)(C)C)cc2)cc1 [Compound 10]
reversible potential, first reduction: −0.35 to −0.82 V
